{"source": "patent US20140329275A1", "about": "“BIOCATALYSIS CELLS AND METHODS” (REGENTS OF THE UNIVERSITY OF MINNESOTA, priority 2011, published 2014)", "tested_on": "wild-type IPDC", "assay_type": "biochemical, Salmonella typhimurium", "settings": "30° C., pH 6.8, coupled with kdhba", "note": "At least one read-out could not be matched to a standard name with certainty.", "data": [{"smiles": "CC(C)CC(=O)C(=O)O", "note": "[ketoleucine]", "values": [{"measurement": "selectivity constant (kcat/Km) of wild-type IPDC", "result": 22200, "unit": "M⁻¹ s⁻¹"}]}]}
